Test results as given in US9375000B2, “Pesticidal arylpyrrolidines” (Bayer Intellectual Property GmbH, priority 2011, dated 2016).
Some of these results come from one statement about several compounds together.

Columns and labels:
Type in all cases: in vivo
[1] = tested on: green peach aphids (Myzus persicae); assay: Myzus persicae spray test (MYZUPE); conditions: active compound concentration 20 ppm; after 6 days
Experimental: Unless not mentioned otherwise, the test solutions were prepared as follows:
Solvent: 3 parts by weight Dimethylformamide
Emulsifier: 1 part by weight Polyoxyethylene alkyl phenyl ether
In order to make an appropriate formulation of an active compound, 1 part by weight of the active compound is mixed with the above mentioned amount of solvent and emulsifier and the mixture is diluted with water to a prescribed concentration. Ammonium salt or ammonium salt and penetration enhancer in a dosage of 1000 ppm are added to the desired concentration if necessary.
1 day before treatment, green peach aphids (Myzus persicae) are inoculated onto the testing plants, about 50 heads per leaf, 100 for 1 pot. A paper label is placed on each pot. Solutions are sprayed directly onto both insects and plants. After drying, the pots are placed in the greenhouse at 20° C.-25° C. After 6 days mortality in % is determined. An insecticidal activity of 100% means that all aphids were killed, whereas an insecticidal activity of 0% means that no aphid was killed.

[2] = tested on: adult engorged female ticks (Boophilus microplus); assay: Boophilus microplus (injection); conditions: application rate 20 μg/animal, after 7 days
[3] = tested on: adult engorged female Boophilus microplus ticks; assay: Test against Boophilus microplus (dip); conditions: application rate 100 ppm, after 7 days
Experimental: Solvent: dimethyl sulfoxide
To produce a suitable preparation of active compound, 10 mg of active compound are dissolved in 0.5 ml solvent, and the concentrate is diluted with water to the desired concentration. Eight to ten adult engorged female Boophilus microplus ticks are placed in perforated plastic beakers and immersed in aqueous compound solution for one minute. Ticks are transferred to a filter paper in a plastic tray. Egg deposition of fertile eggs is monitored after. After 7 days mortality in % is determined. 100% means that all the ticks have been killed; 0% means that none of the ticks have been killed.

[4] = tested on: Ctenocephalides felis; assay: Test against Ctenocephalides felis (CTECFE), blood feeding; conditions: application rate 100 ppm in cattle blood; after 2 days
[5] = tested on: Lucilia cuprina 1st instar larvae; assay: Test against Lucilia cuprina larvae; conditions: application rate 100 ppm; after 48 hrs
[6] = tested on: Musca domestica; assay: Test against Musca domestica; conditions: application rate 100 ppm; after 2 days

| SMILES | insecticidal activity (mortality) [1] | activity (mortality; infertile eggs) [2] | activity (mortality) [3] | activity (mortality) [4] | activity (larval mortality) [5] | activity (mortality) [6] |
| --- | --- | --- | --- | --- | --- | --- |
| O=C(NCc1ccc(N2CCC(c3cc(Cl)cc(Cl)c3F)(C(F)(F)F)C2O)nc1C(F)(F)F)C1CC1 (stereo not drawn) [A3-348] | 90% | 100% | 100% | 100% | 100% | 100% |
| O=C(CC(F)(F)F)NCc1cnc(N2CCC(c3cc(Cl)cc(Cl)c3)(C(F)(F)F)C2O)nc1C(F)(F)F (stereo not drawn) [A4-7] | 98% | 100% | 100% | 100% | 100% | 100% |
| O=C(NCc1cnc(N2CCC(c3cc(Cl)c(F)c(Cl)c3)(C(F)(F)F)C2O)nc1C(F)(F)F)C1CC1 (stereo not drawn) [A4-104] | 98% | 100% | 100% | 100% | 100% | 100% |
| CCC(=O)NCc1cnc(N2CCC(c3cc(Cl)c(F)c(Cl)c3F)(C(F)(F)F)C2O)nc1C(F)(F)F (stereo not drawn) [A4-112] | 98% | 100% | 100% | 100% | 100% | 100% |
| CCC(=O)NCc1cnc(N2CCC(c3cc(Cl)c(Cl)c(Cl)c3)(C(F)(F)F)C2O)nc1C(F)F (stereo not drawn) [A4-216] | 98% | 100% | 100% | 100% | 100% | 100% |
| O=C(CC(F)(F)F)NCc1cnc(N2CCC(c3cc(Cl)c(Cl)c(Cl)c3)(C(F)(F)F)C2O)nc1C(F)F (stereo not drawn) [A4-221] | 90% | 100% | 100% | 100% | 100% | 100% |
